{"source": "patent US10533018B2", "about": "“Antimicrobial prochelators to target drug-resistant bacteria and methods of making and using the same” (Duke University, priority 2015, dated 2020)", "tested_on": "susceptible E. coli HB101 K-12 (no β-lactamase)", "assay": "Broth microdilution (preliminary, Table 1), susceptible K-12", "assay_type": "cell-based, Escherichia coli", "conditions": "susceptible strain of E. coli", "protocol": "In order to determine the antibiotic activity of DB4-51, a debilitated strain of Escherichia coli (HB101 K-12) was transformed with the pGLO plasmid from Bio-Rad in order to express β-lactamase. This transformation was confirmed by growing on a selective medium containing 100 μg/ml ampicillin in Lennox LB with 1.5% agar. A broth microdilution assay was employed to determine the relative activity of DB4-51 against susceptible (HB 101 K-12, no β-lactamase) and resistant (HB 101 K-12 transformed to express β-lactamase) E. coli. Using Lennox LB as the medium. serial dilutions of the test compounds were performed in a 96-well plate and then inoculated with E. coli before incubating for 16-20 hours at 35° C. The bacterial growth was monitored by recording each well's absorbance at 600 nm (OD600.) The OD600 values of E. coli suspensions incubated with various compounds were compared in order to assess their activities.\nFIG. 7: OD600 of susceptible and resistant K-12 E. coli cultures against DB4-51 and known antibiotics as a function of concentration. Ampicillin has a penicillin core and cephalexin has a cephalosporin core. […] Plates were grown at 35° C. while shaking at 200 rpm and the OD600 was recorded after 18 hours.\nTable 1: Calculated IC50 values for DB4-51, cephalexin, ampicillin, and pyrithione. […]", "note": "Some of these results come from one statement about several compounds together."}
{"compound": "O=C(Cc1ccccc1)N[C@@H]1C(=O)N2C(C(=O)O)=C(CSc3cccc[n+]3[O-])CS[C@H]12", "note": "[DB4-51, 2-((((6R,7R)-2-carboxy-8-oxo-7-(2-phenylacetamido)-5-thia-1-azabicyclo[4.2.0]oct-2-en-3-yl)methyl)thio)pyridine 1-oxide]", "values": [{"measurement": "concentration above which active (OD600, FIG. 7)", "result": "above 17.5 μM"}]}
{"compound": "CC1=C(C(=O)O)N2C(=O)[C@@H](NC(=O)[C@H](N)c3ccccc3)[C@H]2SC1", "note": "[Cephalexin]", "values": [{"measurement": "concentration above which active (OD600, FIG. 7)", "result": "above 17.5 μM"}]}
